Here are results for 25 molecules from the M2OR odorant receptor database.

Chains of the proteins cited; added tags and fusions are not shown. Chains listed by the source or under a name are the forms on record and can include a tag or linker.
OR2J2, as listed by the source: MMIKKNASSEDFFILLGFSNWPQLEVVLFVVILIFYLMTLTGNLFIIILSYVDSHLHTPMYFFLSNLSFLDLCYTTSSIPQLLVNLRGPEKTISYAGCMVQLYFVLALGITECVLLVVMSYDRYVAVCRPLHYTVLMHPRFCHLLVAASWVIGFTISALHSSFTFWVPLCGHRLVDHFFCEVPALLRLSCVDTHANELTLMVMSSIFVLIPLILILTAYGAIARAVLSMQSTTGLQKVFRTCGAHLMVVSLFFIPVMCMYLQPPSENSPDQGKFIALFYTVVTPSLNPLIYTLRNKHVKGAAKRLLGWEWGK
OR2J3, as listed by the source: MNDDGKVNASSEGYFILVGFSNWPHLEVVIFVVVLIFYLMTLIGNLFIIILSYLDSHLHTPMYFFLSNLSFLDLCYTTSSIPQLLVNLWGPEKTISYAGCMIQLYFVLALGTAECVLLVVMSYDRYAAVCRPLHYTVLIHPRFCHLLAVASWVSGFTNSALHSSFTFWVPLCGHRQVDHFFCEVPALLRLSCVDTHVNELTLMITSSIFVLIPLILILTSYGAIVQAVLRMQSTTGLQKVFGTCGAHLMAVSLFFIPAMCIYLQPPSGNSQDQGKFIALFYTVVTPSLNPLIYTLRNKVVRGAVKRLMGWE
OR2J1, as listed by the source: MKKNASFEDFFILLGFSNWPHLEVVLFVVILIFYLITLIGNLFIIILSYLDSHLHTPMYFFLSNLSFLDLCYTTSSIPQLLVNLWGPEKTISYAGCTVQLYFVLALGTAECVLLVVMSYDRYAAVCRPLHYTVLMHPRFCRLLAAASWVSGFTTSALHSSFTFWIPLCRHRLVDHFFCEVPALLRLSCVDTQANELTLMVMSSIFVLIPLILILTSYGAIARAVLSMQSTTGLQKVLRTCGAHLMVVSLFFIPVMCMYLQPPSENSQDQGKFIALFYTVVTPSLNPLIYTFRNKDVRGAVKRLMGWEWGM

Substitutions are numbered along the chain they refer to. This is a selection; strong and weak results do not stand in their true shares. Calls are pooled over several reports, among them a noisy single-well screen. The list shows a part of the results.

Holding throughout (conditions): stereoisomer not certain
In one test the test system is T1, OR2H2.
T1 sequence (whole entry): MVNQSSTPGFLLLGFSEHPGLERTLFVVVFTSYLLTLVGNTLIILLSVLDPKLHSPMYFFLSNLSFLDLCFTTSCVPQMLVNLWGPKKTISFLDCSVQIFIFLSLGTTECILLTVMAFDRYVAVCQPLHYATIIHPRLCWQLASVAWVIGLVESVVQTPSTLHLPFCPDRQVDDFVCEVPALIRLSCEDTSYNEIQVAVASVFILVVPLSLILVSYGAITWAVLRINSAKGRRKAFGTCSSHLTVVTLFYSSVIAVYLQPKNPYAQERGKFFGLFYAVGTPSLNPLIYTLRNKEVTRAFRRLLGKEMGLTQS
Summed up:
(§1)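 Whether a receptor–molecule pair is responsive (active) rests on the original authors' judgment that its measured signal was statistically different from baseline. Pairs without that judgment are non-responsive (inactive). Sources used varied assay methods, commonly transient luciferase assays in mammalian cell lines.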

Test [1] relates to T2, OR2J1.
T2 sequence (whole entry): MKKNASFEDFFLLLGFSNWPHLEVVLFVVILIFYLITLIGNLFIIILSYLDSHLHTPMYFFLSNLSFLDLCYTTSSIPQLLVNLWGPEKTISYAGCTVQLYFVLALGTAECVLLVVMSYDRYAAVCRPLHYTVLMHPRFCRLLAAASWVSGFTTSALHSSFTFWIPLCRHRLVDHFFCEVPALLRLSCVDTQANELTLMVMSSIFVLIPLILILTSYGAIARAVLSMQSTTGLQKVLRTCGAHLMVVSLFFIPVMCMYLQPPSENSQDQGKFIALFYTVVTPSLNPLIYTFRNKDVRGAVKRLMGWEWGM
In a few lines: as §1

The target of the next test is T3, OR2J2 (Homo sapiens) (UniProt O76002).
T3 sequence (whole entry): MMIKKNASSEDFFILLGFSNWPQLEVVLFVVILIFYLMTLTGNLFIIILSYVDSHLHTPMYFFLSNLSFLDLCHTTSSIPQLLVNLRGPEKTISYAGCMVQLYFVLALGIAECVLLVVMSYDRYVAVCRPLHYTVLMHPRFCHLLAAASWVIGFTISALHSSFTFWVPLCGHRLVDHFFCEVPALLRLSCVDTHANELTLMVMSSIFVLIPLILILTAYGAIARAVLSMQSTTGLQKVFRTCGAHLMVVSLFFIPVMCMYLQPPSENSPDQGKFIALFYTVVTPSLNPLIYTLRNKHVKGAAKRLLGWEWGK
In a few lines: as §1

The subject of test [2] is T4, OR2J2.
T4 sequence (whole entry): T3 sequence (whole entry) with A218T
In a few lines: as §1

The subject of test [3] is T5, OR2J2.
T5 sequence (whole entry): T3 sequence (whole entry) with H74Y, A146V, A218T
Summed up: as §1
The source holds these as a separate data set.

Test [4] concerns T6, OR2J2.
T6 sequence (whole entry): T3 sequence (whole entry) with H74Y, A111T, A146V
In a few lines: as §1
The source holds these as a separate data set.

The target of the next test is T7, OR2J3 (Homo sapiens) (UniProt O76001).
T7 sequence (whole entry): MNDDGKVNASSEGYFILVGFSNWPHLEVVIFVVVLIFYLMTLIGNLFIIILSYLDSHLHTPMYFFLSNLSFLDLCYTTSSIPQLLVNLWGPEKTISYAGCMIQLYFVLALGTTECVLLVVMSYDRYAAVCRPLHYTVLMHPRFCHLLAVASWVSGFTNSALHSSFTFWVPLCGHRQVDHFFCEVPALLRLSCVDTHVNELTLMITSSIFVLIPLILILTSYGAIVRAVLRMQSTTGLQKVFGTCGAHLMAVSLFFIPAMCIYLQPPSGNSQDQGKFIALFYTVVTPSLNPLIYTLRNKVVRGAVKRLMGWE
Summed up: as §1

Test [5] deals with OR2J1. Summed up: as §1
This is another data set of the same source.

For another test, the system named is OR2J3. In a few lines: as §1
In test [6] the test system is OR2J2. Summed up:
as §1
This is another data set of the same source.
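Note: active if original authors judged signal statistically different from baseline.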

Take `CCCC(=O)O`: the “odorant receptor agonist call” value in the test with OR2H2, in the test with OR2J1 [1], with OR2J2 (Homo sapiens), in the test on OR2J2 [2], with OR2J2 [3] and with OR2J2 [4] was “inactive” each time. Besides, the “odorant receptor agonist call” value in the test with OR2J3 (Homo sapiens) is “inactive”.
As for `CC1=NC(C)SC1C` (centres undefined), the “odorant receptor agonist call” value with OR2H2, with OR2J1 [1], with OR2J2 (Homo sapiens), with OR2J2 [2], in the test on OR2J2 [3] and in the test on OR2J2 [4] was “inactive” in each case.
On to `O=C1CCCCC1`, for which the “odorant receptor agonist call” value in the test with OR2H2, in the test on OR2J1 [1], with OR2J2 (Homo sapiens), in the test with OR2J2 [2], in the test on OR2J2 [3] and in the test with OR2J2 [4] was “inactive” each time.
For the molecule `CC(C)=CCCC(C)=CC=O`, the “odorant receptor agonist call” value with OR2H2, in the test with OR2J1 [1], with OR2J2 (Homo sapiens), in the test on OR2J2 [2], in the test on OR2J2 [3] and with OR2J2 [4] was “inactive” throughout. In addition, the “odorant receptor agonist call” value with OR2J3 (Homo sapiens) was “active”.
As to `CCCCCCCCCC=O`, the “odorant receptor agonist call” value in the test with OR2H2, in the test on OR2J1 [1], with OR2J2 (Homo sapiens), with OR2J2 [2], with OR2J2 [3] and in the test with OR2J2 [4] was “inactive” each time. Moreover, the “odorant receptor agonist call” value with OR2J3 (Homo sapiens) is “active”.
Turning to `COC(=O)c1ccccc1O`, the “odorant receptor agonist call” value in the test on OR2H2, with OR2J1 [1], with OR2J2 (Homo sapiens), in the test on OR2J2 [2], in the test on OR2J2 [3] and in the test on OR2J2 [4] was “inactive” in each case. Besides, in the test with OR2J3 (Homo sapiens), the “odorant receptor agonist call” value is “inactive”.
`CCCCCCCCOC(C)=O`: the “odorant receptor agonist call” value with OR2H2, in the test on OR2J1 [1], with OR2J2 (Homo sapiens), in the test on OR2J2 [2], in the test with OR2J2 [3] and in the test on OR2J2 [4] was “inactive” throughout. In addition, the “odorant receptor agonist call” value with OR2J3 (Homo sapiens) was “active”.
`CCCCCC(C)=O`: the “odorant receptor agonist call” value with OR2H2, in the test with OR2J1 [1], with OR2J2 (Homo sapiens), in the test on OR2J2 [2], with OR2J2 [3] and in the test on OR2J2 [4] was “inactive” throughout.
`CCC=CCCO`: the “odorant receptor agonist call” value in the test on OR2H2, with OR2J1 [1], with OR2J2 (Homo sapiens), in the test on OR2J2 [2] and in the test with OR2J3 was “inactive” each time. Moreover, the “odorant receptor agonist call” value with OR2J1 [5], in the test on OR2J2 [3], in the test with OR2J2 [4] and with OR2J3 (Homo sapiens) was “active” each time.
For `COc1ccccc1O`, the “odorant receptor agonist call” value with OR2H2, with OR2J1 [1], with OR2J2 (Homo sapiens), with OR2J2 [2], in the test with OR2J2 [3] and with OR2J2 [4] was “inactive” each time. Besides, the “odorant receptor agonist call” value with OR2J3 (Homo sapiens) was “active”.
For `CC(=O)OC1CC2CCC1(C)C2(C)C` (centres undefined), the “odorant receptor agonist call” value in the test with OR2H2, in the test with OR2J1 [1], in the test with OR2J2 (Homo sapiens), in the test on OR2J2 [2], with OR2J2 [3] and with OR2J2 [4] was “inactive” in each case. In the test with OR2J3 (Homo sapiens), the “odorant receptor agonist call” value is “inactive”.
With `CCCCCCCCCCC=O`, the “odorant receptor agonist call” value with OR2H2, in the test on OR2J1 [1], with OR2J2 (Homo sapiens), in the test on OR2J2 [2], in the test with OR2J2 [3] and in the test with OR2J2 [4] was “inactive” each time. In addition, the “odorant receptor agonist call” value with OR2J3 (Homo sapiens) is “inactive”.
On to `CC12C=CCC1C1CCC3CC(=O)CCC3(C)C1CC2` (centres undefined), for which the “odorant receptor agonist call” value with OR2H2, with OR2J1 [1], with OR2J2 (Homo sapiens), in the test with OR2J2 [2], in the test on OR2J2 [4] and with OR2J3 (Homo sapiens) was “inactive” in each case. Moreover, the “odorant receptor agonist call” value with OR2J2 [3] and in the test with OR2J2 [6] was “active” throughout.
As to `CC12C=CCC1C1CCC3=CC(=O)CCC3(C)C1CC2` (centres undefined), the “odorant receptor agonist call” value in the test with OR2H2, in the test on OR2J1 [1], with OR2J2 (Homo sapiens), with OR2J2 [2], in the test on OR2J2 [3] and in the test on OR2J2 [4] was “inactive” in each case. The “odorant receptor agonist call” value with OR2J3 (Homo sapiens) was “inactive”.
For the molecule `COC(=O)c1ccccc1`, the “odorant receptor agonist call” value in the test with OR2H2 and with OR2J2 [3] was “active” in each case. For the same molecule, the “odorant receptor agonist call” value in the test with OR2J1 [1], in the test with OR2J2 (Homo sapiens), with OR2J2 [2] and with OR2J2 [4] was “inactive” throughout.
On to `C=CC(C)(O)CCC=C(C)C` (centres undefined), for which the “odorant receptor agonist call” value in the test on OR2H2, in the test on OR2J1 [1], with OR2J2 (Homo sapiens), in the test on OR2J2 [2], in the test on OR2J2 [3] and in the test on OR2J2 [4] was “inactive” in each case. Besides, the “odorant receptor agonist call” value with OR2J3 (Homo sapiens) is “inactive”.
For `CCCCCCCOC(C)=O`, the “odorant receptor agonist call” value in the test with OR2H2, in the test on OR2J1 [1], in the test with OR2J2 (Homo sapiens), in the test with OR2J2 [2], with OR2J2 [3] and in the test on OR2J2 [4] was “inactive” each time. Further, the “odorant receptor agonist call” value with OR2J3 (Homo sapiens) is “active”.
For the molecule `CCC1(O)C2(C)CCC(C2)C1(C)C` (centres undefined), the “odorant receptor agonist call” value in the test on OR2H2, in the test on OR2J1 [1], in the test with OR2J2 (Homo sapiens), with OR2J2 [2], in the test with OR2J2 [3] and with OR2J2 [4] was “inactive” in each case. For the same molecule, the “odorant receptor agonist call” value in the test with OR2J3 (Homo sapiens) was “inactive”.
Consider `CC(C)C(=O)O`, for which the “odorant receptor agonist call” value in the test on OR2H2, in the test on OR2J1 [1], with OR2J2 (Homo sapiens), in the test on OR2J2 [2], in the test on OR2J2 [3] and in the test with OR2J2 [4] was “inactive” throughout. The “odorant receptor agonist call” value with OR2J3 (Homo sapiens) was “inactive”.
With `CCCCCCOC(=O)CCC`, the “odorant receptor agonist call” value in the test on OR2H2, with OR2J1 [1], in the test with OR2J2 (Homo sapiens), in the test with OR2J2 [2], in the test with OR2J2 [3] and with OR2J2 [4] was “inactive” throughout. In the test with OR2J3 (Homo sapiens), the “odorant receptor agonist call” value was “active”.
`CCCCCCCC=CC=O`: the “odorant receptor agonist call” value in the test on OR2H2, in the test with OR2J1 [1], with OR2J2 (Homo sapiens), with OR2J2 [2], in the test with OR2J2 [3] and in the test with OR2J3 (Homo sapiens) was “inactive” throughout. In addition, the “odorant receptor agonist call” value in the test with OR2J2 [4] was “active”.
With `C=CCc1ccc(OC(C)=O)c(OC)c1`, the “odorant receptor agonist call” value in the test with OR2H2, in the test on OR2J1 [1], with OR2J2 (Homo sapiens), in the test with OR2J2 [2] and in the test with OR2J2 [3] was “inactive” in each case. In addition, the “odorant receptor agonist call” value with OR2J2 [4] and in the test with OR2J3 (Homo sapiens) was “active” throughout.
For the molecule `CC(C)CC(=O)O`, the “odorant receptor agonist call” value in the test with OR2H2, in the test with OR2J1 [1], in the test with OR2J2 (Homo sapiens), with OR2J2 [2], in the test on OR2J2 [3] and in the test on OR2J2 [4] was “inactive” throughout. In addition, the “odorant receptor agonist call” value with OR2J3 (Homo sapiens) was “inactive”.
As to `CCCCCCCC=O`, the “odorant receptor agonist call” value in the test on OR2H2, with OR2J1 [1], in the test with OR2J2 (Homo sapiens), with OR2J2 [2], with OR2J2 [3] and in the test with OR2J2 [4] was “inactive” in each case. Also, the “odorant receptor agonist call” value with OR2J3 (Homo sapiens) is “active”.
With `CC(C)(C)c1ccc(CCC=O)cc1`, the “odorant receptor agonist call” value in the test with OR2H2, with OR2J1 [1], in the test with OR2J2 (Homo sapiens), in the test with OR2J2 [2], in the test on OR2J2 [3] and in the test with OR2J2 [4] was “inactive” each time. Further, the “odorant receptor agonist call” value in the test with OR2J3 (Homo sapiens) is “inactive”.
